Data as given in PubChem BioAssay AID1688 (National Center for Advancing Translational Sciences (NCATS), 2009).
Hit rate of the full screen: of about 220,000 compounds, about 2,400 (1.1%) were called active. The shares of active, inactive and inconclusive entries below differ from those in the screen. Calls follow the shape of the dose curve; as a rule, active = well fitted inhibition curve with a large enough effect; inconclusive = small, poorly fitted or top-dose-only effect, or effect the other way; inactive = no such curve, though single readings can be large or run the other way. Where the call is inconclusive, the potency comes from a doubtful curve fit.
% is scaled to controls: 0 for no effect and ±100 for the full control effect; potency is read from the fitted curve at half-maximal effect.

Assay: qHTS Multiplex Assay to Identify Dual Action Probes in a Cell Model of Huntington: Aggregate Formation (GFP); also: nearly all actives have a fitted effect of over 60% in size
Conditions: PC12 HttQ103-GFP aggregates, Acumen cytometry, 40 h; activity change, negative = inhibition: at 46.1 µM (top of the series) unless noted
Procedure, shortened: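 Aggregates are detected as GFP objects 1–25 µm with signal 6 STDEV over background in lysates of induced PC12 cells. These carry Huntingtin exon 1 with 103 glutamines fused to GFP under an ecdysone promoter; compounds titrated.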
With COc1ccc(CCNC(=O)c2ccc(-c3ccc([N+](=O)[O-])cc3Cl)o2)cc1OC the Potency was inconclusive: 12.6 µM [inhibitor, single point].
With O=C(O)C1CC=CCC1C(=O)Nc1cccc(F)c1 (configuration not stated) the Potency was inconclusive: 0.891 µM [inhibitor, single point].
In the case of COc1ccc(Nc2ncnc3ccccc23)cc1, the Potency is reported as active: 11.2 µM.
For COc1cc([C@@H]2c3cc4c(cc3[C@@H](O)[C@H]3COC(=O)[C@H]23)OCO4)cc(OC)c1O[Si](C)(C)C(C)(C)C, the activity change, negative = inhibition was inactive: -8.38% [at 9.22 µM].
In the case of NC(=O)c1cc(C(=O)c2ccc(Cl)cc2Cl)c[nH]1, the Potency is reported as inconclusive: 31.6 µM [inhibitor, single point].
For CC(=O)c1ccc(N2CCN(C(=O)c3ccc4c(=O)n(-c5ccccc5)c(=O)[nH]c4c3)CC2)cc1, the Potency was “inactive”.
For COc1ccc(CCNC(=O)Cn2c(-c3nonc3N)nc3ccccc32)cc1OC, the Potency was inconclusive: 6.31 µM [activator, single point].
In the case of Cc1cccc(Nc2nc(N)nc(CCl)n2)c1C, the Potency is reported as inconclusive: 4.47 µM [inhibitor, partial curve].
For Cc1cc(NS(=O)(=O)c2ccc(NC(=O)COc3ccccc3Cl)cc2)no1, the Potency was inconclusive: 0.126 µM [inhibitor, partial curve, poor fit].
For N#CC1=C(N)C(C#N)(C#N)C(c2ccncc2)C2CN(C(=O)OCc3ccccc3)CC=C12 (configuration not stated), the Potency was “inactive”.
For Cc1cc(O)cc(O)c1C=NCc1ccco1, the Potency was inconclusive: 35.5 µM [inhibitor, single point].
With NS(=O)(=O)c1ccc(NC(=O)CSc2ncnc3ccccc23)cc1 the Potency was “inactive”.
For COc1ccc(N2CCN(C(=O)CC(NC(N)=O)c3cccc(Oc4ccccc4)c3)CC2)cc1 (configuration not stated), the Potency was inconclusive: 3.16 µM [activator, partial curve].
With Cc1cc(C)n(-c2nc(C)nc3c2cnn3-c2ccccc2)n1 the Potency was “inactive”.
For O=C(Nc1cccc(Br)c1)c1ccc(CSc2ccccc2)cc1, the Potency was inconclusive: 2.82 µM [activator, partial curve].
In the case of CC(=O)c1sc(NC(=O)COc2ccc(C(C)C)c(C)c2)nc1C, the Potency is reported as “inactive”.
For CCCCc1nc2ccccc2c(=O)n1NC(=O)c1c(O)c2cccc3c2n(c1=O)CC3, the Potency was inconclusive: 0.708 µM [activator, single point].
In the case of CC(C)N=c1scc(-c2ccco2)n1/N=C/c1ccc(O)c(O)c1, the Potency is reported as inconclusive: 2.82 µM [inhibitor, single point].
In the case of O=C(NNc1ccc(C2CCCCC2)cc1)C(O)(c1ccccc1)c1cccs1 (configuration not stated), the Potency is reported as inconclusive: 22.4 µM [inhibitor, single point].
For COc1ccc(N2CCN(CC(O)c3c[nH]c4ccc(OC)cc34)CC2C)cc1 (configuration not stated), the Potency was active: 12.6 µM.
With COC(=O)c1ccc(NC(=O)CN(C)S(=O)(=O)c2ccc(OC)c(C)c2)cc1 the Potency was active: 1.26 µM.
In the case of COc1ccc(/C=N/NC(=O)c2ccccc2)cc1OS(=O)(=O)c1ccccc1, the Potency is reported as inconclusive: 12.6 µM [inhibitor, single point].
With CC(=O)N1CCc2cc(S(=O)(=O)NCCC(=O)NCCc3ccc(C)cc3)ccc21 the Potency was inconclusive: 8.91 µM [inhibitor, partial curve].
With CCC1=NN2C(=N)/C(=C\c3cccn3-c3ccc(Br)cc3)C(=O)N=C2S1 the Potency was “inactive”.
For O=C(CCl)Nc1ccc(N=Nc2ccccc2)cc1, the Potency was inconclusive: 35.5 µM [inhibitor, single point].
In the case of O=P(CO)(Cc1ccccc1)Cc1ccccc1, the Potency is reported as “inactive”.
With Clc1ccc(OCc2nc(-c3ccccn3)n[nH]2)cc1 the Potency was inconclusive: 3.16 µM [inhibitor, single point].
With CCOC(=O)c1snc(-c2ccc(F)cc2)c1N the Potency was “inactive”.
In the case of O=C(Cc1cc(=O)[nH][nH]1)N/N=C/C(Cl)=C/c1ccccc1, the Potency is reported as “inactive”.
For CCOC(=O)C1=C(c2ccccc2)N=C2SCC(=O)N2C1c1cccc(OC)c1 (configuration not stated), the Potency was inconclusive: 10 µM [activator, partial curve].
With Oc1c(Cl)cc(Cl)cc1/C=N/Nc1ncc(Br)cn1 the Potency was inconclusive: 3.16 µM [inhibitor, full curve].
For CC(C)C(=O)NC(c1cccs1)c1cc([N+](=O)[O-])c2cccnc2c1O (configuration not stated), the Potency was active: 2 µM.
For CCOC(=O)CC1=C(C(=O)OCC)C(c2cc(OC)c(OC)cc2OC)C(C#N)=C(N)O1 (configuration not stated), the Potency was inconclusive: 5.62 µM [inhibitor, single point].
For CCOC(=O)N1CCN(C(=O)Cc2ccc(Cl)cc2)CC1, the Potency was “inactive”.
For CCOc1ccc(N2C(=O)CC(NCCNc3ccc(C(=O)c4cccs4)cc3)C2=O)cc1 (configuration not stated), the Potency was “inactive”.
In the case of Nc1c(C(=O)NCc2ccccc2)sc2nc(N3CCOCC3)c3c(c12)CCCC3, the Potency is reported as inconclusive: 11.2 µM [activator, partial curve].
With CC(C)C1Cc2[nH]c(=O)c(C(=O)O)cc2CO1 (configuration not stated) the Potency was inconclusive: 2 µM [inhibitor, partial curve].
With COc1cc(-c2cc(C(=O)Nc3ccccc3N3CCOCC3)c3ccccc3n2)cc(OC)c1OC the Potency was inconclusive: 10 µM [inhibitor, partial curve].
With Cc1ccc2nc(SCC(=O)N3CCN(C(=O)c4ccco4)CC3)[nH]c2c1 the Potency was “inactive”.
For O=C(CSc1nc2ncc(Br)cc2[nH]1)c1ccc([N+](=O)[O-])cc1, the Potency was “inactive”.
For Cc1n[nH]c(C)c1NC(=O)c1cc([N+](=O)[O-])ccc1Cl, the Potency was inconclusive: 4.47 µM [inhibitor, full curve, poor fit].
With O=C(CSc1nnnn1Cc1ccccc1)Nc1ccc2c(c1)OCO2 the Potency was “inactive”.
With C1=Nc2c(NCc3ccccc3)ncnc2Oc2ccccc21 the Potency was inconclusive: 6.31 µM [inhibitor, partial curve].
For COc1ccc(Sc2nc3ccccc3n3c(C(F)(F)F)nnc23)cc1, the Potency was “inactive”.
In the case of CCCc1[nH]nc2c1C(c1cn[nH]c1-c1ccc(F)cc1)C(C#N)=C(N)O2 (configuration not stated), the Potency is reported as active: 11.2 µM.
For O=C(NCC(c1cccs1)N1CCOCC1)c1ccc([N+](=O)[O-])cc1 (configuration not stated), the Potency was inconclusive: 2 µM [inhibitor, partial curve].
In the case of CC1(C)CNC(=O)c2sc(N3CCOCC3)nc2C1, the Potency is reported as inconclusive: 7.94 µM [inhibitor, partial curve].
With CC(C)(C)C(=O)NC(Nc1cccc2cccnc12)C(Cl)(Cl)Cl (configuration not stated) the Potency was inconclusive: 5.62 µM [activator, single point].
With Cc1ccc(-c2noc(CSc3nnnn3C3CCCCC3)n2)cc1 the Potency was inconclusive: 35.5 µM [inhibitor, single point].
For CN(C)c1ccc(S(=O)(=O)NCC(=O)OCC(=O)Nc2cc(Cl)cc(Cl)c2)cc1[N+](=O)[O-], the Potency was “inactive”.
With CC(CCc1ccccc1)NC(=O)c1ccc(C(=O)NC(C)CCc2ccccc2)cc1 (configuration not stated) the Potency was inconclusive: 3.55 µM [inhibitor, single point].
With O=C(NCC(c1cccs1)N1CCOCC1)c1ccc(Cl)s1 (configuration not stated) the Potency was “inactive”.
For CCCCCOc1ccc(NC(=O)CSc2cccc3cccnc23)cc1, the Potency was “inactive”.
With CC(C)(C)c1cc(NCCCn2ccnc2)n2ncc(-c3ccc(Cl)cc3)c2n1 the Potency was inconclusive: 35.5 µM [inhibitor, single point].
With Cn1c(=O)cc(SCC(=O)N2CCN(C(=O)c3ccco3)CC2)c2ccccc21 the Potency was inconclusive: 8.91 µM [activator, partial curve].
With CCCc1nc(SCC(=O)N2CCCc3ccccc32)c2c(=O)n(C)c(=O)n(C)c2n1 the Potency was inconclusive: 35.5 µM [inhibitor, single point].
In the case of O=C(CN1CCN(S(=O)(=O)c2ccccc2)CC1)Nc1ccc(Cl)c(Cl)c1, the Potency is reported as inconclusive: 25.1 µM [inhibitor, single point].
With Cc1cccc(N=c2oc3cc(O)ccc3cc2C(N)=O)c1 the Potency was active: 8.91 µM.
With O=C(Nc1ccc(F)c(F)c1)c1ccc(F)c(S(=O)(=O)N2CCC3(CC2)OCCO3)c1 the Potency was inconclusive: 35.5 µM [inhibitor, single point].
For CC1CSc2n(-c3cccc(C(F)(F)F)c3)cc(-c3ccccc3)[n+]21 (configuration not stated), the Potency was inconclusive: 17.8 µM [inhibitor, partial curve].
With COc1ccccc1OCc1nc(C#N)c(N2CCC(C(N)=O)CC2)o1 the Potency was inconclusive: 0.794 µM [inhibitor, single point].
For O=c1cc(-c2ccccc2)[nH]n1-c1nc2ccccc2s1, the Potency was inconclusive: 31.6 µM [inhibitor, single point].
With COC(=O)CCC(=O)Nc1ccc(N=Nc2ccccc2)cc1 the Potency was “inactive”.
For CCc1ccc(N2C(=O)c3cc(N4CCOCC4)c([N+](=O)[O-])cc3C2=O)cc1, the Potency was inconclusive: 0.708 µM [activator, single point].
With Cc1ccccc1-c1cc(C(=O)Nc2sc(C(=O)OC(C)C)c(C)c2C#N)c2ccccc2n1 the Potency was active: 4.47 µM.
In the case of CCOc1ccc(C2NC(=O)c3ccccc3O2)cc1 (configuration not stated), the Potency is reported as “inactive”.
With Cc1ccc(Nc2cc(=O)oc3ccccc23)c(C)c1 the Potency was “inactive”.
In the case of COc1ccc(-c2cn[nH]c2N)c(OC)c1, the Potency is reported as inconclusive: 3.16 µM [inhibitor, full curve].
With Cc1cnc(NC(=O)c2ccc(-c3nc4ccccc4s3)o2)s1 the Potency was inconclusive: 3.98 µM [inhibitor, partial curve].
With Cc1ccsc1/C=N/NC(=O)c1cccs1 the Potency was inconclusive: 5.62 µM [inhibitor, single point].
In the case of CCOC(=O)c1c[nH][nH]c1=O, the activity change, negative = inhibition is reported as inactive: 3.17% [at 9.22 µM].
With CS(=O)(=O)N1CCN(c2ccccc2NC(=O)c2ccc([N+](=O)[O-])o2)CC1 the Potency was inconclusive: 35.5 µM [inhibitor, single point].
